In article PMC10564737, “Structure-based design of a phosphotyrosine-masked covalent ligand targeting the E3 ligase SOCS2” (Nature Communications, 2023):
Where “and” joins values, the source holds several entries; their conditions need not be identical. Equal values may be shown once. This continues a long series; more values of the same kind are listed elsewhere.

Sequences of proteins named here, by UniProt entry; tags and fusion partners are left off. Residues count along the entry.
UniProt O14508, 32-198: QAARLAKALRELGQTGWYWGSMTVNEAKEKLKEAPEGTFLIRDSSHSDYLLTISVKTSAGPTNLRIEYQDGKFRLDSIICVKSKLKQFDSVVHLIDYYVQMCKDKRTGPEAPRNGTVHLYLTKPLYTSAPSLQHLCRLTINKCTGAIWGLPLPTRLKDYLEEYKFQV

Molecular target: T1, SBC2 (Homo sapiens, UniProt O14508)
T1 construct: SOCS2 (amino acids 32–198); His6 (N, cleaved yes); made in house; host or cells: E. coli BL21(DE3)
Test: Covalent fluorescence polarization (FP) probe displacement assay
Assay type: binding
Source text: With the specific covalent modification of Cys111 established, we decided to fully characterize MN551 as a covalent SOCS2 inhibitor. […] (Fig. 2g, h, Supplementary Fig. 9). Due to the covalent nature of the competing inhibitor, a time-dependent reduction in the fraction of protein-bound probe is observed. […] This value illustrates reasonable specificity for a covalent inhibitor, with nonetheless scope for future optimization. In addition to characterizing the kinetic covalency parameters, we have also assessed the stability of the MN551 by monitoring its reactivity (half-life >70 min) with reduced glutathione (GSH) (Supplementary Fig. 10)[35].
To monitor the SBC2-ligand binding kinetics we designed a fluorescein-labeled small-molecule probe - compound 26. The fluorescence polarization (anisotropy) of a threefold serial dilution of 50 µM SBC2 in 10 nM of the probe in 100 mM HEPES pH 7.5, 50 mM NaCl, 0.5 mM TCEP, 2% DMSO was measured to determine the KL (Supplementary Fig. 9A) (BMG Labtech PHERAstar – firmware v1.33). Protein titration and the curves were fitted using GraphPad Prism 9, using one-site fitting models to determine the probe binding constant, KL. Samples were run in triplicate in 384 well plates, using a total volume per well of 16 μL. The bound fraction of the probe is measure using the equation:1 Fb=Af−A/Af−Ab Where,
A time-dependent reduction in probe anisotropy were measured for a 2-fold serial dilution of […] compound MN551 in 10 nM probe +300 μM SBC2. To determine the initial reversible binding affinity, the initial bound fraction of the probe at time = 0, Fbo (the y-intercept in Fb v/s Time plot, Supplementary Fig. 9B) was plotted against MN551 concentration, and the obtained IC50 is then converted to Ki (Supplementary Fig. 9C)[17]. The slope from Fb versus time graph when divided by Fbo gives rate of covalency, kobs. A plot of kobs v/s MN551 concentration using Michaelis–Menten model of GraphPad Prism 9, provides the parameters kinact (maximum potential rate of inactivation) and KI (concentration of MN551 at which kobs = kinact/2) (Supplementary Fig. 9D, E).
The observed first-order rate constant, kobs is related to KI and kinact by the equation:2 kobs=kinactI/KI+I
At [I]«[KI] the above equation is converted to3 […]
The slope from the plot of kobs against concentration of MN551 gives us the covalent efficiency parameter kinact/KI (Supp Fig. 9F)[30],[33].

[1] = MN551 195.312 nM; Cycle 6 (25 min)
[2] = MN551 195.312 nM; Cycle 7 (30 min)
[3] = MN551 195.312 nM; Cycle 8 (35 min)
[4] = MN551 195.312 nM; Cycle 9 (40 min)
[5] = MN551 195.312 nM; Cycle 10 (45 min)
[6] = MN551 195.312 nM; Cycle 11 (50 min)
[7] = MN551 195.312 nM; Cycle 12 (55 min); n=1
[8] = MN551 195.312 nM; Cycle 13 (60 min); n=1
[9] = MN551 195.312 nM; Cycle 14 (65 min); n=1
[10] = MN551 195.312 nM; Cycle 15 (70 min); n=1
[11] = MN551 195.312 nM; Cycle 16 (75 min); n=1
[12] = MN551 260.308 nM, Cycle 8 (35 min)
[13] = MN551 260.308 nM, Cycle 9 (40 min)
[14] = MN551 260.308 nM, Cycle 10 (45 min)
[15] = MN551 260.308 nM, Cycle 11 (50 min)
[16] = MN551 260.308 nM, Cycle 16 (75 min), n=1
[17] = MN551 260.308 nM, Cycle 17 (80 min), n=1
[18] = MN551 260.308 nM, Cycle 18 (85 min), n=1
[19] = MN551 260.308 nM; Cycle 7 (30 min)
[20] = MN551 260.308 nM; Cycle 8 (35 min)
[21] = MN551 260.308 nM; Cycle 9 (40 min)
[22] = MN551 260.308 nM; Cycle 10 (45 min)
[23] = MN551 260.308 nM; Cycle 11 (50 min)
[24] = MN551 260.308 nM; Cycle 12 (55 min); n=1
[25] = MN551 260.308 nM; Cycle 13 (60 min); n=1
[26] = MN551 260.308 nM; Cycle 14 (65 min); n=1
[27] = MN551 260.308 nM; Cycle 15 (70 min); n=1

Structure (SMILES): O=C(CCl)Nc1cccc(CNC(=O)[C@H](Cc2ccc(OP(=O)(O)O)cc2)NC(=O)Cc2ccc(F)cc2)c1 [MN551]
- Anisotropy (MN551 195.312 nM, Cycle 18 (85 min), n=1): 266.8 and 267.2 and 267.6
- Fb, fraction bound (MN551 195.312 nM; Cycle 3 (10 min)): 0.955 and 1 and 0.99
- Fb, fraction bound (MN551 195.312 nM; Cycle 4 (15 min)): 0.9705 and 0.9535 and 0.9653
- Fb, fraction bound (MN551 195.312 nM; Cycle 5 (20 min)): 0.9351 and 1.007 and 0.9807
- Anisotropy data 485,520,520 [1]: 274.9 and 279 and 277
- Fb [1]: 0.9521 and 0.9704 and 0.949
- Fb, fraction bound [1]: 0.9546 and 1.015 and 0.9671
- Anisotropy data 485,520,520 [2]: 275.1 and 274.5 and 277.1
- Fb [2]: 0.999 and 0.9504 and 0.9981
- Fb, fraction bound [2]: 0.9641 and 0.9963 and 1.003
- Anisotropy [3]: 277 and 278 and 277.1
- Anisotropy data 485,520,520 [3]: 274.5 and 272.6 and 275.9
- Fb [3]: 0.9747 and 0.9241 and 0.9792 and 0.976 and 0.9758 and 0.9765
- Anisotropy [4]: 275.8 and 276.7 and 274.6
- Anisotropy data 485,520,520 [4]: 271.1 and 271.6 and 274.3
- Fb [4]: 0.9651 and 0.9279 and 0.97 and 0.9519 and 0.9792 and 0.9643
- Anisotropy [5]: 275.8 and 274.1 and 274.4
- Anisotropy data 485,520,520 [5]: 272.7 and 272.1 and 273.8
- Fb [5]: 0.998 and 0.9437 and 0.9769 and 0.9616 and 0.9688 and 0.9656
- Anisotropy [6]: 275.6 and 275.2 and 274.2
- Anisotropy based on Raw Data (485) [6]: 274.6 and 272.8 and 268.7
- Anisotropy (MN551 195.312 nM; Cycle 11 (50 min); n=1): 270.5 and 271.3 and 274.6
- Anisotropy [7]: 268.5 and 272.6 and 271
- Anisotropy based on Raw Data (485) [7]: 275.2 and 269.4 and 267.2
- Anisotropy [8]: 267.5 and 266.1 and 267.7
- Anisotropy based on Raw Data (485) [8]: 274 and 271.2 and 267.3
- Anisotropy [9]: 267.3 and 269.3 and 268.4
- Anisotropy based on Raw Data (485) [9]: 271.8 and 269.5 and 265.4
- Anisotropy [10]: 267.5 and 266.8 and 268.2
- Anisotropy based on Raw Data (485) [10]: 273.4 and 268.3 and 266.3
- Anisotropy [11]: 265 and 265.7 and 266.3
- Anisotropy based on Raw Data (485) [11]: 269.5 and 268.6 and 267.2
- Anisotropy data 485,520,520 (MN551 195.312 nM; Cycle 19 (90 min); n=1): 265.7 and 268.5 and 265.9
- Anisotropy data 485,520,520 (MN551 195.312 nM; Cycle 20 (95 min); n=1): 265.8 and 266.4 and 264.8
- Fb (MN551 260.308 nM, Cycle 7 (30 min)): 0.9423 and 0.7798 and 0.7969
- Anisotropy based on Raw Data (485) [12]: 269 and 265.5 and 267.4
- Fb [12]: 0.7982 and 0.7952 and 0.7751
- Anisotropy based on Raw Data (485) [13]: 267.7 and 265.2 and 261.8
- Fb [13]: 0.8802 and 0.7701 and 0.7652
- Anisotropy based on Raw Data (485) [14]: 265.7 and 264.9 and 261.2
- Fb [14]: 0.8219 and 0.7745 and 0.7789
- Anisotropy based on Raw Data (485) [15]: 266.1 and 263.8 and 262.3
- Fb [15]: 0.9343 and 0.7485 and 0.7812
- Anisotropy (MN551 260.308 nM, Cycle 13 (60 min), n=1): 259.4 and 257.8 and 259.5
- Anisotropy (MN551 260.308 nM, Cycle 14 (65 min), n=1): 260.3 and 257.8 and 257.1
- Anisotropy (MN551 260.308 nM, Cycle 15 (70 min), n=1): 258.9 and 256.9 and 257.3
- Anisotropy [16]: 258.7 and 255.2 and 256.6
- Normalised anisotropy (0 nM MN551 = 1, free probe = 0) [16]: 0.8414 and 0.8288 and 0.8384
- Anisotropy [17]: 257.6 and 256.5 and 255.1
- Anisotropy based on Raw Data (485) [17]: 258 and 258.1 and 255.5
- Normalised anisotropy (0 nM MN551 = 1, free probe = 0) [17]: 0.8538 and 0.8338 and 0.8496
- Anisotropy [18]: 257 and 252.2 and 251.6
- Normalised anisotropy (0 nM MN551 = 1, free probe = 0) [18]: 0.8577 and 0.8084 and 0.8398
- Fb, fraction bound (MN551 260.308 nM; Cycle 4 (15 min)): 0.884 and 0.8897 and 0.9103
- Fb, fraction bound (MN551 260.308 nM; Cycle 5 (20 min)): 0.9118 and 0.8725 and 0.9048
- Fb, fraction bound (MN551 260.308 nM; Cycle 6 (25 min)): 0.8859 and 0.8781 and 0.8833
- Anisotropy data 485,520,520 [19]: 276.8 and 254.5 and 255.7
- Fb [19]: 0.921 and 0.9315 and 0.957
- Fb, fraction bound [19]: 0.8603 and 0.8614 and 0.8952
- Anisotropy [20]: 265.5 and 264.5 and 265.6
- Anisotropy data 485,520,520 [20]: 261.7 and 255.8 and 254.5
- Fb [20]: 0.9053 and 0.9116 and 1.006 and 0.8928 and 0.8606 and 0.9026
- Anisotropy [21]: 265.6 and 265.3 and 264.4
- Anisotropy data 485,520,520 [21]: 270.6 and 251.9 and 252.8
- Fb [21]: 0.9033 and 0.9261 and 0.9417 and 0.9012 and 0.8631 and 0.8867
- Anisotropy [22]: 264.9 and 261.9 and 261.5
- Anisotropy data 485,520,520 [22]: 260.9 and 250.1 and 251.9
- Fb [22]: 0.9085 and 0.9188 and 0.962 and 0.8906 and 0.8443 and 0.8627
- Anisotropy [23]: 263.7 and 259.1 and 261.9
- Anisotropy data 485,520,520 [23]: 272.8 and 249.1 and 251.5
- Fb [23]: 0.8864 and 0.8318 and 0.8857
- Fb (MN551 260.308 nM; Cycle 11 (50 min); column head blank in this cycle): 0.9094 and 0.923 and 0.9572
- Anisotropy [24]: 260.4 and 247.8 and 250.4
- Anisotropy based on Raw Data (485) [24]: 262.1 and 263.7 and 260.9
- Anisotropy [25]: 265.9 and 245.3 and 247.3
- Anisotropy based on Raw Data (485) [25]: 262.8 and 262.4 and 260.4
- Anisotropy [26]: 264.3 and 245.7 and 249.8
- Anisotropy based on Raw Data (485) [26]: 260.9 and 259.6 and 258
- Anisotropy [27]: 263.9 and 246.1 and 246.5
- Anisotropy based on Raw Data (485) [27]: 260.6 and 259.8 and 258.8
